Common to all, as to test: odorant receptor activation (CRE luciferase / Renilla) (fold of no-odor wells); higher = more activation
Holding throughout (conditions): 100 µM

The test system of experiment [1] is OR1N2 W23R/V230G/T287M clone 1105.
Experiment [2] relates to OR1N2 W37R/V244G/T301M clone 1350.
For experiment [3], the system named is OR1N2 clone 1505.
The test system of experiment [4] is OR1Q1 Q24R/I163M clone 1103.
The subject of experiment [5] is OR1S1 clone 1455.
Experiment [6] has as its system OR1S2 I46T clone 1137.
The test system of experiment [7] is OR2A1 clone 1078.
The subject of experiment [8] is OR2A12 clone 1085.
In experiment [9] the test system is OR2A14 Indel clone 1540.
Experiment [10] has as its system OR2A14 clone 1083.
For experiment [11], the system named is OR2A2 F280L clone 1541.
The subject of experiment [12] is OR2A2 clone 1476.
In experiment [13] the test system is OR2A25 clone 1387.
Experiment [14] concerns OR2A4 clone 1386.
Experiment [15] deals with OR2A42 clone 1565.
Experiment [16] relates to OR2A5 clone 1437.
For experiment [17], the system named is OR2A7 clone 1077.
In experiment [18] the test system is OR2A7 clone 1543.
Experiment [19] has as its system OR2AE1 I77T clone 1079.
Experiment [20] concerns OR2AG1 clone 1112.

Several values for one entry are separate records, joined by “and”; a condition that tells them apart may be missing. Identical values can stand only once. Some of the results follow. Single wells; the ratio to wells without odorant was worked out here, and repeats agree poorly.

On to `CC12CCC(C1)C(C)(C)C2=O` (stereo not given) [fenchone], for which the odorant receptor activation was 0.872 in experiment [1]; 1.06 in experiment [2]; 1.07 in [3]; 1.1 in experiment [4]; 0.601 in experiment [5]; 0.99 in experiment [6]. Also, the odorant receptor activation in experiment [7] was found to be 0.688; in experiment [8], 0.994; in [9], 1.24; in experiment [10], 1.11; in experiment [11], 1.09; in [12], 1.18. The odorant receptor activation in experiment [13] was found to be 0.835; in experiment [14] it was 1.06; in experiment [15], 0.801; in experiment [16], 1.14; in experiment [17], 1.04; in experiment [18] it was 0.983. Further, the odorant receptor activation in experiment [19] was 1.15; in experiment [20] it was 1.16.

On to `COc1ccccc1O` [guaiacol], for which the odorant receptor activation in [1] was 2.1; in experiment [2] it was 1.07 and 0.85; in [3] it was 0.752 and 1.06; in experiment [4], 1.45; in experiment [5], 0.751; in experiment [6], 1.16. The odorant receptor activation in experiment [7] is 0.962; in experiment [8] it was 1.25; in [9], 0.959 and 1.05; in [10], 0.693; in experiment [11], 0.999 and 1.14; in [12], 0.968 and 0.969. The odorant receptor activation in experiment [13] is 0.778; in [14] it was 0.875; in experiment [15] it was 0.817; in [16], 0.79; in experiment [17], 1.53; in [18] it was 1.06 and 0.92. The odorant receptor activation is 1.04 in experiment [19] and 0.996 in experiment [20].

For `CCC1(O)C2(C)CCC(C2)C1(C)C` (stereo not given) [2-ethylfenchol], the odorant receptor activation stood at 4.33 in experiment [1]; 1.29 in experiment [2]; 1.4 in experiment [3]; 31.3 in experiment [4]; 0.874 in experiment [5]; 1.07 in experiment [6]. Moreover, the odorant receptor activation in [7] amounted to 4.59; in [8], 2.57; in experiment [9], 1.14; in experiment [10], 3.82; in experiment [11], 1.32; in experiment [12] it was 1.24. The odorant receptor activation in experiment [13] worked out at 0.612; in experiment [14], 0.799; in experiment [15], 0.479; in [16], 0.631; in experiment [17], 2.37; in experiment [18] it was 1.05. In addition, the odorant receptor activation in experiment [19] stood at 23.5; in [20], 6.66.

Consider `COC(=O)c1ccccc1O` [methyl salicylate], for which the odorant receptor activation in [1] was determined as 1.19; in [2], 0.806; in experiment [3], 1.01; in experiment [4], 1.07; in experiment [5], 0.996; in [6], 1.06. The odorant receptor activation in experiment [7] was found to be 1.25; in experiment [8], 1.26; in experiment [9], 0.841; in experiment [10], 0.951; in experiment [11] it was 0.704; in experiment [12] it was 0.99. Also, the odorant receptor activation in [13] came to 1.18; in experiment [14] it was 0.978; in experiment [15], 0.856; in [16], 1.33; in [17], 1.01; in experiment [18], 0.874. The odorant receptor activation in experiment [19] was 1.05; in [20], 0.888.

For the compound `C=CCc1ccc(OC(C)=O)c(OC)c1` [eugenol acetate], the odorant receptor activation in experiment [1] amounted to 1.82; in [2], 2.03; in [3], 1.64; in experiment [4], 1.9; in experiment [5], 2; in experiment [6], 2. In addition, the odorant receptor activation in [7] was found to be 1.27; in [8] it was 1.82; in experiment [9], 1.66; in experiment [10], 1.76; in experiment [11], 1.65; in [12], 1.79. The odorant receptor activation was determined as 1.52 in [13]; 1.68 in experiment [14]; 1.99 in experiment [15]; 1.88 in experiment [16]; 1.54 in experiment [17]; 1.49 in [18]. Also, the odorant receptor activation was 1.78 in experiment [19] and 1.65 in experiment [20].

Regarding `CCCCCCCCOC(C)=O` [octyl acetate], the odorant receptor activation in experiment [1] is 0.995; in [2], 1.18; in [3], 0.929; in experiment [4], 1.13; in experiment [5] it was 0.867; in experiment [6], 1.4. The odorant receptor activation in experiment [7] came to 1.23; in experiment [8], 1.22; in experiment [9], 0.978; in [10], 1.02; in experiment [11], 0.738; in experiment [12], 1.08. In addition, the odorant receptor activation in [13] was found to be 1.25; in experiment [14], 1.01; in [15] it was 0.825; in [16], 0.869; in experiment [17], 0.878; in experiment [18], 0.862. Also, the odorant receptor activation in experiment [19] came out at 1.01; in [20], 1.19.

For the origin of these results see the odorant receptor screen of Mainland et al. (2015).
